Laboratory results reported in US20170306005A1 (NASCIENT, published 2017).
Substitutions are numbered along the chain they refer to. Numbers in names are those of the source. No constants are given. Whether binding was seen depends on the method and setting. Some binding calls cover weakened binding; strength is not graded here. Tags and fused reporters may be left off the sequences shown.

T1: mouse tenascin-C rCd4-His-FBG (rat; mouse, UniProt P05540 207-392, limits assumed)
T1 construct: domain: domains 3 and 4; C-terminal FBG fusion; biotinylated in the ELISA screen; also called Mu TNC; mouse TNC rCd4-His-FBG; not shown: 6His tag
T1 sequence (chain (part 1 of 2)): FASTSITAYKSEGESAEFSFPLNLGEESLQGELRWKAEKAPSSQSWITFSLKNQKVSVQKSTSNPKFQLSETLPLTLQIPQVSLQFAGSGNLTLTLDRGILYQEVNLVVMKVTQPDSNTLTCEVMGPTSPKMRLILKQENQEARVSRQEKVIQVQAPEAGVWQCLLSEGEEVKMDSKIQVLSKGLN
T1 sequence (chain (part 2 of 2)): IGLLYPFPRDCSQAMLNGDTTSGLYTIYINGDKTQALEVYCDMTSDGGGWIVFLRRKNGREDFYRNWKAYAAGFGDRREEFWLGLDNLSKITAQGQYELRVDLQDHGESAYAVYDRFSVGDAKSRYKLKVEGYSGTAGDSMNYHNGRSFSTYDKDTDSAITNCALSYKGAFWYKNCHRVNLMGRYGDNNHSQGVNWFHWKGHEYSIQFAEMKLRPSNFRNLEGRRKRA

T2: human tenascin-C rCd4-His-FBG (rat; human, UniProt P05540 207-392, limits assumed)
T2 construct: domain: domains 3 and 4; C-terminal FBG fusion; biotinylated in the ELISA and HTRF screens; also called Hu TNC; human TNC rCd4-His-FBG; not shown: 6His tag
T2 sequence (chain (part 1 of 2)): T1 sequence (chain (part 1 of 2))
T2 sequence (chain (part 2 of 2)): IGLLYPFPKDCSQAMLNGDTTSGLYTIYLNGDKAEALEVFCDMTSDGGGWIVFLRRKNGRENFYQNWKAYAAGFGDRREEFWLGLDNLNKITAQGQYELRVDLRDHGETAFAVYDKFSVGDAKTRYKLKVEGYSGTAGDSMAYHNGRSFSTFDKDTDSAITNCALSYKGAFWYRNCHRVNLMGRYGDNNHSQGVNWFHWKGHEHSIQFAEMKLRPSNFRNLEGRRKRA

B1: 165_13_D1 human IgG4 (antibody, V domains shown)
VH: QVQLVESGGGLVQPGRSLRLSCAASGFTFDDYAMHWVRQAPGKGLEWVSGISGSGGSTYYADSVKGRFTISRDNAKNSLYLQMNSLRAEDTALYYCAKGTRGEGDTFDIWGQGTMVTVSS
VL: DIQMTQSPASLPTPVGDRVTITCRASQYIQGFLNWYQQKPGKAPKLLIYDASNLETGVPSRFSGSGSGTDFTLTISSLQPEDFATYYCQQSYSTPQTFGQGTKVDIKR
notes: human IgG4 with hinge S241P
B2: 161_01_H10 human IgG4 (antibody, V domains shown)
VH: EVRLVQSGAEVKKPGASVKVSCKVSGYTLTELSMHWVRQAPGKGLEWMGGFDPEDGETIYAQKFQGRVTMTEDTSTDTAYMELSSLRSEDTAVYYCATAQPVWAPGTYWGQGTLVTVSS
VL: B1 VL with P14S, K45R, D50A, N53T, E55Q, T56D, S67Y, Q96W, D105E
notes: human IgG4 with hinge S241P; also called Antibody 161 01 H10 (derived from 2A5)
B3: 162_02_D3 human IgG4 (antibody, V domains shown)
VH: B2 VH with P101I, V102H, W103P, A104L, P105G, G106L
VL: B1 VL with P14S, K45R, D50A, N53T, E55Q, T56D, S67Y, Q96W, D105E
notes: human IgG4 with hinge S241P; also called Antibody 162 02 D3 (derived from 2A5)
B4: 165_13_D1 scFv (scFv, V domains shown, not shown: small tags and cut ends)
VH: B1 VH
VL: DIQMTQSPASLPTPVGDRVTITCRASQYIQGFLNWYQQKPGKAPKLLIYDASNLETGVPSRFSGSGSGTDFTLTISSLQPEDFATYYCQQSYSTPQTFGQGTKVDIK
notes: E. coli supernatant scFv
B5: 165_13_B1 scFv (scFv, V domains shown, not shown: small tags and cut ends)
VH: B1 VH with G99V, T100M, R101S, G102S, E103M, G104E, T106A
VL: B4 VL
notes: E. coli supernatant scFv
B6: 165_13_B6 scFv (scFv, V domains shown, not shown: small tags and cut ends)
VH: B1 VH with T100Q, R101K
VL: B4 VL
notes: E. coli supernatant scFv
B7: 160_01_A4 scFv (scFv, V domains shown, not shown: small tags and cut ends)
VH: B2 VH with P101K, V102E, W103T, A104L, P105G, G106N, T107A, Y108I
VL: B4 VL with P14S, K45R, D50A, N53T, E55Q, T56D, S67Y, Q96W, D105E
notes: E. coli supernatant scFv
B8: 160_01_F1 scFv (scFv, V domains shown, not shown: small tags and cut ends)
VH: B2 VH with P101S, V102P, A104S, P105G, G106M
VL: B4 VL with P14S, K45R, D50A, N53T, E55Q, T56D, S67Y, Q96W, D105E
notes: E. coli supernatant scFv
B9: 160_01_G2 scFv (scFv, V domains shown, not shown: small tags and cut ends)
VH: B2 VH with A99Y, Q100T, P101L, V102D, W103N, A104M, P105A, G106L
VL: B4 VL with P14S, K45R, D50A, N53T, E55Q, T56D, S67Y, Q96W, D105E
notes: E. coli supernatant scFv
B10: 160_01_H4 scFv (scFv, V domains shown, not shown: small tags and cut ends)
VH: B2 VH with A99G, Q100R, P101F, A104E, P105A, G106L
VL: B4 VL with P14S, K45R, D50A, N53T, E55Q, T56D, S67Y, Q96W, D105E
notes: E. coli supernatant scFv
B11: 161_01_A12 scFv (scFv, V domains shown, not shown: small tags and cut ends)
VH: B2 VH with V102T, W103A, A104L, P105A, G106N
VL: B4 VL with P14S, K45R, D50A, N53T, E55Q, T56D, S67Y, Q96W, D105E
notes: E. coli supernatant scFv
B12: 161_01_C09 scFv (scFv, V domains shown, not shown: small tags and cut ends)
VH: B2 VH with P101L, V102P, W103Y, A104L, P105A, G106Q
VL: B4 VL with P14S, K45R, D50A, N53T, E55Q, T56D, S67Y, Q96W, D105E
notes: E. coli supernatant scFv
B13: 161_01_C11 scFv (scFv, V domains shown, not shown: small tags and cut ends)
VH: B2 VH with P101K, V102E, A104L, G106D, T107V, Y108T
VL: B4 VL with P14S, K45R, D50A, N53T, E55Q, T56D, S67Y, Q96W, D105E
notes: E. coli supernatant scFv
B14: 161_01_F6 scFv (scFv, V domains shown, not shown: small tags and cut ends)
VH: B2 VH with P101K, V102E, W103N, A104I, P105A, G106N, T107R, Y108H
VL: B4 VL with P14S, K45R, D50A, N53T, E55Q, T56D, S67Y, Q96W, D105E
notes: E. coli supernatant scFv; also called 160_01_F6
B15: 161_01_H10 scFv (scFv, V domains shown, not shown: small tags and cut ends)
VH: B2 VH
VL: B4 VL with P14S, K45R, D50A, N53T, E55Q, T56D, S67Y, Q96W, D105E
notes: E. coli supernatant scFv
B16: 162_02_D3 scFv (scFv, V domains shown, not shown: small tags and cut ends)
VH: B2 VH with P101I, V102H, W103P, A104L, P105G, G106L
VL: B4 VL with P14S, K45R, D50A, N53T, E55Q, T56D, S67Y, Q96W, D105E
notes: E. coli supernatant scFv

The binders below were run against T1, mouse tenascin-C rCd4-His-FBG (assay: SPR, captured purified IgG4, 37 C).
Procedure: Detailed kinetic parameters were evaluated for the 9 prioritised IgG4 antibodies. Binding characteristics were determined for interaction with human, rat and dog TNC rCD4-His-FBG, and human TNR rCD4-His-FBG. Kinetic assays followed essentially the same protocols as for the off-rate determinations described above, with some modifications as follows. […] Purified anti-FBG IgG4 was diluted to a concentration of 3.5 nM in PBS, pH 7.4, 0.05% Tween-20 and injected into FC2 at a flow rate of 10 μl/min, 60 s contact time. […] Antigens were prepared by doubling dilution in PBS, pH 7.4, 0.05% Tween-20 (highest concentration 100 nM except mouse rCD4-His-FBG which was 7 nM). Assays were performed at 37° C. (30 μl/min, 120 s contact time; mouse rCD4-His-FBGFBG 10 μl/min, 60 s contact time), with both the flow cell and injection chamber equilibrated to this temperature. As before, kinetic parameters were determined by reference cell subtraction and fitting the sensogram experimental data assuming a 1:1 interaction using BIAevaluation software (GE, BR-1005-97).

Binder | binding
B1 | binds
B2 | binds
B3 | binds

Each binder was assayed against T2, human tenascin-C rCd4-His-FBG (assay: ELISA and HTRF screens, scFv).

Binder | binding
B4 | binds
B5 | binds
B6 | binds
B7 | binds
B8 | binds
B9 | binds
B10 | binds
B11 | binds
B12 | binds
B13 | binds
B14 | binds
B15 | binds
B16 | binds

What follows are binders tested against T1, mouse tenascin-C rCd4-His-FBG (assay: ELISA and HTRF screens, scFv).

Binder | binding
B4 | binds
B5 | binds
B6 | binds
B7 | binds
B8 | binds
B9 | binds
B10 | binds
B11 | binds
B12 | binds
B13 | binds
B14 | binds
B15 | binds
B16 | binds
